These are yes or no findings as the source states them, for the method shown. Binding seen in cells or lysates may run through a third protein. These calls come from enrichment with a bait or labelling near it, and not all partners need be listed.

Amino acid sequences for entries named in this document (tags omitted). A change or cut given only in a name is not applied to a line headed by its entry.
UniProt P0A8N5: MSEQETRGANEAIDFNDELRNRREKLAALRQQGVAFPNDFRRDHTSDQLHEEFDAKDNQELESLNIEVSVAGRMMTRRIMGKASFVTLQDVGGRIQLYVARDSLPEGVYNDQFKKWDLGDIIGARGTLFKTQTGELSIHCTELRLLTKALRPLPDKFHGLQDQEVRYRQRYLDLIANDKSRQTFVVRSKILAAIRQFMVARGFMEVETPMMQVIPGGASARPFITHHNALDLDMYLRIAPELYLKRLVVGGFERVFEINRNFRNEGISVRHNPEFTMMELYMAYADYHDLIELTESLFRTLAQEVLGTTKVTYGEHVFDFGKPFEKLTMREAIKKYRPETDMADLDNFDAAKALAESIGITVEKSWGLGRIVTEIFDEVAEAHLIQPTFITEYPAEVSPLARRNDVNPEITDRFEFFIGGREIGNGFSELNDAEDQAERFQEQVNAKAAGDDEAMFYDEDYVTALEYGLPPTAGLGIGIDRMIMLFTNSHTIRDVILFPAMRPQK
UniProt P0CE47: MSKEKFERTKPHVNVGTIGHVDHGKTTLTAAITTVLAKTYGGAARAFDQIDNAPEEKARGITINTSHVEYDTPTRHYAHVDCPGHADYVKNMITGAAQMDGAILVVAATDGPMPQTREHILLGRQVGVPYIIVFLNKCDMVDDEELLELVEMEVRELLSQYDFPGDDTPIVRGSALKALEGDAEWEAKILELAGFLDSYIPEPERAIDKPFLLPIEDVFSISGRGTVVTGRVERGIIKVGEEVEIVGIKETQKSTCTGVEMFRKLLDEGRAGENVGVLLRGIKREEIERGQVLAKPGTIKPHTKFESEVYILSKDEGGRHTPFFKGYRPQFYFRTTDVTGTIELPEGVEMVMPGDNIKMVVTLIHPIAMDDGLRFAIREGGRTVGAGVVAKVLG

Test [1] deals with T1, YagJ (E. coli K-12 W3110 (endogenous in DY330)) (UniProt P77169).
T1 sequence: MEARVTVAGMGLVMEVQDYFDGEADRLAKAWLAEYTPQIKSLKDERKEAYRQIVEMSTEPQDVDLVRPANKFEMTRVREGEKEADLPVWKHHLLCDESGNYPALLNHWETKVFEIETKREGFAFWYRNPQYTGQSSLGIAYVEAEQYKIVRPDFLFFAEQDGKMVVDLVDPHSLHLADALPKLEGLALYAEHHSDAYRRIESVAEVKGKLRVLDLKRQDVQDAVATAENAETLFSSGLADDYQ
In words: affinity purification with mass spectrometry; chromosomal C-terminal SPA tag (three FLAG sequences and a calmodulin-binding peptide separated by a protease cleavage site) on the bait in E. coli DY330 (W3110 background); tandem-affinity purification of endogenous complexes under standard culture conditions; copurifying proteins detected by LCMS and MALDI; pairs filtered at confidence >=0.75.

The target of test [2] is T2, YdhQ (E. coli K-12 W3110 (endogenous in DY330)) (UniProt P77552).
T2 sequence: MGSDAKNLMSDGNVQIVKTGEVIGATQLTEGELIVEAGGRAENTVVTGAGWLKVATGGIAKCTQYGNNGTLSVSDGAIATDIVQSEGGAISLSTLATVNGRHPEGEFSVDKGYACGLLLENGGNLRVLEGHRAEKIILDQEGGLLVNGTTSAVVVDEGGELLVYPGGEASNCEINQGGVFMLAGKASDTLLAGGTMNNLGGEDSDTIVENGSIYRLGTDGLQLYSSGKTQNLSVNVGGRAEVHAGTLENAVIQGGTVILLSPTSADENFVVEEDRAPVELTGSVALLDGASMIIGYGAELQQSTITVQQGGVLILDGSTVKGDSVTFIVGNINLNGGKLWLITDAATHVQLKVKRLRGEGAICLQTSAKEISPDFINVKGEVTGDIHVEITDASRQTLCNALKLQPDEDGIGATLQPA
Described as above.

Consider “lysine tRNA synthetase (LysU) (from UniProt P0A8N5 1-505) (enzyme)”, for which the binding result in test [1] was “binds”.
For “translation elongation factor Tu (from UniProt P0CE47)”, the binding result in test [2] is “binds”.

These data come from paper PMC2672614.
